In paper PMC6925144, “A prospective compound screening contest identified broader inhibitors for Sirtuin 1” (Scientific Reports, 2019):
Over roughly 3,200 compounds, “TSA(with NAD+) / Primary screening (TSA) / delta Tm (K)” has its median near -0.04; the highest 2% begin near 0.37. Some of the results follow.

The chains behind the UniProt entries cited, without tags or fusion partners. Residues count along the entry.
UniProt Q96EB6, 2-747 limits assumed: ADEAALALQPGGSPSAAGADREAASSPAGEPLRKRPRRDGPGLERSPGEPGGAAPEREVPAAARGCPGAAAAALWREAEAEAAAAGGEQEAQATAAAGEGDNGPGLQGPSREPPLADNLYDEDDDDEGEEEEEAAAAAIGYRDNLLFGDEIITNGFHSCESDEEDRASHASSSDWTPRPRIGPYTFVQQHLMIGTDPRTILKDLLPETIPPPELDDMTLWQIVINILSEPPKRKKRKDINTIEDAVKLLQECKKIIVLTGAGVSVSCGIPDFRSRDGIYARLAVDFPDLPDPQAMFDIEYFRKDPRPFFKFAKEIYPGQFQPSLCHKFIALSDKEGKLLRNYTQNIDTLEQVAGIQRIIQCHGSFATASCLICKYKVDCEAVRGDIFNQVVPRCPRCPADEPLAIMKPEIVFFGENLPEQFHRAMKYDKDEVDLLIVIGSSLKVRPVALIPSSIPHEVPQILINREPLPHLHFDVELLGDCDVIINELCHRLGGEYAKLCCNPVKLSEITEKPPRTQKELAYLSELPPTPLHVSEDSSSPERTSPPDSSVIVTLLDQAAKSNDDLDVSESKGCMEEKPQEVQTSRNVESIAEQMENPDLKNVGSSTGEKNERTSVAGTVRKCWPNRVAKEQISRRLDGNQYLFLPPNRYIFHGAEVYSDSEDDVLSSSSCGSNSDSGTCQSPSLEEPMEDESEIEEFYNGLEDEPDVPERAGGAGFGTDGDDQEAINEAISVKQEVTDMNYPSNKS

What follows are molecules tested against NAD-dependent deacetylase Sirtuin 1 (human, UniProt Q96EB6) (assay: primary screen, delta tm). Conditions: 10 µM.
Parameters: single well (n = 1, as 'the same TSA')

SMILES | TSA(with NAD+) / Primary screening (TSA) / delta Tm (K)
CN(c1ccccc1)S(=O)(=O)c1cccc(C(=O)Nc2ccccc2-c2ccccc2)c1 | -0.02
CC(=O)c1cc(CCC(=O)Nc2ccc(-c3nnc4n3CCCCC4)cc2)oc1C | -0.01
COc1ccc(NC(=O)NCC(C)(C)SC)cc1 | -0.09
NC(=O)C1CC(C(=O)NCc2ccc(O)cc2)=NN1c1ccccc1 (centres unmarked) | -0.28
C=CCOc1ccc(C(=O)C2=C(O)C(=O)N(CCN3CCOCC3)C2c2ccco2)cc1 (centres unmarked) | -0.01
CC(C)C(NC(=O)CCCn1c(=O)oc2cc([N+](=O)[O-])ccc21)c1nnc2ccccn12 (centres unmarked) | -0.11
CCOc1cc(/C=C/C(=O)C2C(=O)C=C(C)OC2=O)ccc1OCC(=O)N1CCOCC1 (centres unmarked) | -0.01
CN(c1ccc(F)cc1)S(=O)(=O)c1ccc(Cl)c(C(=O)Nc2ccc(C(N)=O)cc2)c1 | -0.11
CC(=O)c1ccc(NC(=O)C(C)OC(=O)c2cccc(S(=O)(=O)NC(C)C34CC5CC(CC(C5)C3)C4)c2)cc1 (centres unmarked) | 0.19
COc1ccc(CNCC(=O)Nc2sc(-c3ccccc3)cc2C(N)=O)cc1 | 0.03
Cc1ccc(N(C)S(=O)(=O)c2cccc(C(=O)OCC(N)=O)c2)cc1 | -0.13
CN(C)c1ncccc1CNC(=O)CN(C)c1ncnc2nc[nH]c12 | -0.06
CC(C)CCN1C(=O)c2ccc(C(=O)OCC(=O)NC(C)C34CC5CC(CC(C5)C3)C4)cc2C1=O (centres unmarked) | 0.12
NC(=S)c1ccc(C(=O)Nc2ccc(OC(F)F)cc2)cc1 | 0.35
N#Cc1c(NCCOc2ccc3c(c2)CCC(=O)N3)nc2ccccn12 | -0.06
Cn1cc(C(=O)Nc2cccc(C3(C)NC(=O)NC3=O)c2)c2ccccc21 (centres unmarked) | 0.07
COC(=O)c1cccc(NC(=O)COC(=O)c2cc(O)cs2)c1 | 0.07
Cc1ccc(Cc2cnc(N)s2)cc1 | -0.16
Cc1cccc(NCCC#N)c1C | -0.16
O=C(NC1CCCCC1O)c1cc2ccccc2[nH]1 (centres unmarked) | -0.13
COc1ccc(-c2nnc(S)o2)c(OC)c1 | -0.13
CS(=O)(=O)Cc1ccc(C(=O)NCC2(N3CCCCC3)CCCCC2)cc1 | -0.03
Cc1sc2nc(-c3cccnc3)nc(N3CCC(C(N)=O)CC3)c2c1C | -0.01

SMILES | TSA(with NAD+) / Primary screening (TSA) / delta Tm (K)
O=C(Nc1cccc(CNC(=O)N2CCC2)c1)c1ccccn1 | -0.02
O=C(NCc1ccccc1CS(=O)(=O)N1CCOCC1)C1=COCCO1 | -0.05
Cc1cccc(C(=O)OCc2ccc(C(=O)Nc3ccccc3)cc2)c1 | -0.03
CCC(=O)CCCN1CCC(C(C)O)CC1 (centres unmarked) | -0.01
COc1cccc(C2C(C(=O)c3ccc4c(c3)OCCO4)=C(O)C(=O)N2CCCN2CCOCC2)c1 (centres unmarked) | -0.03
O=C1NC(=S)NC(=O)C1=Cc1cn(-c2ccccc2)nc1-c1cc2ccccc2o1 | 0.56
COc1ccc(C(=O)C2=C(O)C(=O)N(CCCN3CCOCC3)C2c2cccc(OC)c2)cc1 (centres unmarked) | -0.11
O=S(=O)(c1ccc(F)c(Cl)c1)N1CCNCC1 | -0.12
Cc1cnc(C(=O)NC2CCCC(C)C2C)cn1 (centres unmarked) | 0.06
CCCC(C)(O)C(=O)O (centres unmarked) | -0.11
CC1CC(C)CN(C(=O)COc2ccc3c4c(c(=O)oc3c2)CCC4)C1 (centres unmarked) | -0.02
COCC(C)n1c(SCc2ccc(C(N)=O)cc2)nc2ccccc2c1=O (centres unmarked) | -0.18
COc1cc(CN(C)C(=O)c2ccc(-n3cnnn3)cc2)ccc1OCc1ccccc1 | -0.22
NC(=O)c1ccc(COC(=O)c2cc(C3CC3)nc3ccccc23)cc1 | -0.03
CCOC(=O)C1=C(COC(=O)c2sc3nc(C)cc(C)c3c2-n2cccc2)NC(=O)NC1 | -0.01
Cc1ccc(C2C(C(=O)c3cc4ccccc4o3)=C(O)C(=O)N2CCCN2CCOCC2)cc1 (centres unmarked) | 0.05
O=C(Cn1c(=O)cnc2ccccc21)Nc1ccc(N2CCN(Cc3ccccc3)CC2)cc1 | 0.01
CC1(C)CCC(NC(=O)Cn2c(=O)cnc3ccccc32)c2ccccc21 (centres unmarked) | -0.16
COCCCCC(=O)O | -0.11
O=C1NC(=O)N(c2ccc3c(c2)OCO3)C1=O | -0.02
Cn1c(CCNC(=O)CCc2cccnc2)nc2cc(Cl)ccc21 | -0.08
Cc1cc(C=C(C#N)C#N)c(C)n1C1CC1 | -0.01
COc1ccc(C2NC(=O)c3ccccc3N2)cc1C (centres unmarked) | -0.04

SMILES | TSA(with NAD+) / Primary screening (TSA) / delta Tm (K)
O=C(/C=C/c1ccc2c(c1)OCCCO2)N1CCN(S(=O)(=O)/C=C/c2ccccc2)CC1 | -0.11
O=C(Nc1cccc(S(=O)(=O)NCc2ccco2)c1)C1=NN(c2ccccc2)C(=O)CC1 | 0.05
CN1CCC(NC(=O)CCc2cnccn2)C1c1ccccc1 (centres unmarked) | -0.02
CNC(=O)C1CCCN(c2ncnc3ccsc23)C1 (centres unmarked) | -0.11
NC(=O)c1ccc(=O)n(Cc2csc(-c3ccccc3F)n2)n1 | -0.05
Cc1ccc2[nH]c3c(c2c1)CC(=O)CC3 | -0.12
COc1cc(C(=O)NC2CCCNC2=O)cc(OC)c1C (centres unmarked) | -0.01
CN1CCN(C(=O)CCCc2ccccc2)c2nc3ccccc3nc21 | -0.22
Cc1ccc(S(=O)(=O)N2CCC(C(=O)N3CCCCCCC3)CC2)cc1C | -0.01
COc1ccc(NC(=O)c2ccc(NC(=O)c3cnoc3C)cc2)cc1OCc1cccnc1 | 0.05
Cc1nc(-c2c[nH]c(C(=O)NCc3ccc(-n4cncn4)cc3)c2)cs1 | -0.24
NC(=O)CCn1cnc2cc(F)c(F)cc21 | -0.22
COc1cc(CNc2ncccc2C#N)ccn1 | -0.05
CCc1ccccc1-n1c(SCCS(C)(=O)=O)nc2ccccc2c1=O | -0.09
CS(=O)(=O)CCS(N)(=O)=O | -0.12
O=C1/C(=C/c2ccccc2)Oc2cc(O)ccc21 | -0.06
NC(=O)c1ccc(NC(=O)CSc2nnc(N)s2)cc1 | -0.13
Cc1sc2ncnc(N3CCC(C(=O)Nc4sc5c(c4C(N)=O)CCCC5)CC3)c2c1C | 0.07
CCn1nnc2cc(C(=O)N3CCN(C(c4ccc(F)cc4)c4ccc(F)cc4)CC3)ccc21 | -0.22
O=C(O)CCS(=O)(=O)[O-] | 0.06
CN(C)c1ncnc2c1cc(C(=O)O)n2C | -0.18
O=C1NC(Cc2ccccc2)C(=O)N1CN1CCN(C/C=C/c2ccccc2)CC1 (centres unmarked) | 0.06

In the list so far, 4 have an NH in an aromatic ring.
SMILES | TSA(with NAD+) / Primary screening (TSA) / delta Tm (K)
CN(C)c1ncccc1CNC(=O)CN(C)c1ncnc2nc[nH]c12 | -0.06
O=C(NC1CCCCC1O)c1cc2ccccc2[nH]1 (centres unmarked) | -0.13
Cc1ccc2[nH]c3c(c2c1)CC(=O)CC3 | -0.12
Cc1nc(-c2c[nH]c(C(=O)NCc3ccc(-n4cncn4)cc3)c2)cs1 | -0.24
